PubChem BioAssay AID2685 (National Center for Advancing Translational Sciences (NCATS), 2010)
This is one part of the list. The main result of the screen is listed elsewhere. These columns were measured beside it and carry no call. The list favours compounds with an active or inconclusive main result. Potencies come from curve fits of mixed quality, noted in brackets.

Assay: qHTS Assay for Lipid Storage Modulators in Drosophila S3 Cells;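 as to cell number change: cells counted by Cell Tracker Red CMTPX staining in the red channel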
Conditions: BODIPY lipid droplet fluorescence, 18-24 h; for cell number change: measured here: cell count max response, cells fed with added oleic acid
Method in brief: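 Drosophila S3 cells loaded with oleic acid (400 uM, as added) and compounds at several concentrations; lipid droplets imaged by 488-nm laser-scanning cytometry, 500–530 nm intensity and object ratio to cell channel. Percent activity normalized to 20 uM Triacsin C.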

[1] = measured here: cell number channel AC50, cells fed with added oleic acid
[2] = measured here: lipid fluorescence (Fed channel) AC50, cells fed with added oleic acid

Compound | AC50 [1] | AC50 [2] | cell number change [%]
O=C(CSc1ncnc2nc[nH]c12)c1ccccc1 | 0.013 µM [rising, full curve, poor fit] | 6.51 µM [rising, single point] | 
CCC(=O)Nc1cccc(-c2nc3ncccc3o2)c1C | 0.058 µM [falling, full curve, poor fit] |  | -37.4
CC1(C)Cc2c(c(N3CCOCC3)nc3sc(C(=O)Nc4cccc(Cl)c4)c(N)c23)CO1 |  | 5.8 µM [falling, single point] | 4.59
Cc1cc(C)cc(-n2ncc3c2CCCC3NC(=O)C2(C(N)=O)CC2)c1 (stereo unspecified) | 9.2 µM [falling, partial curve] | 3.66 µM [falling, full curve] | -43.7
COc1ccc(NC(=O)CC23CC4CC(C2)CC(n2nnc(C)n2)(C4)C3)cc1 |  | 0.0058 µM [rising, full curve, poor fit] | 14
CC(C)n1cc(CNC(=O)C2CCC(=O)N(Cc3ccccc3F)C2)cn1 (stereo unspecified) |  |  | 6.52
Cc1ccnc(NC(=O)c2c(-c3ccccc3Cl)noc2C)c1 |  | 29.1 µM [falling, single point] | 8.15
O=C(Cc1ccccc1)NC(C(=O)O)C(O)c1ccc([N+](=O)[O-])cc1 (stereo unspecified) | 29.1 µM [rising, single point] | 0.58 µM [rising, single point] | 44.1
O=C(Nc1ccc(Cl)cc1Cl)c1ccc(-c2ccccc2)cc1 |  | 11.6 µM [rising, partial curve, poor fit] | 14.8
NS(=O)(=O)c1ccc(CCNc2ncnc3sccc23)cc1 | 7.31 µM [falling, partial curve] | 1.84 µM [falling, full curve] | -53.2
COc1ccccc1N(C)S(=O)(=O)c1ccc(C(=O)OC(C)C(=O)NCc2ccc3c(c2)OCO3)cc1 (stereo unspecified) | 0.184 µM [rising, full curve, poor fit] |  | 20.8
COc1ccc(OC)c(NC(=O)c2cc(S(=O)(=O)NCc3ccco3)ccc2F)c1 |  | 0.00517 µM [rising, full curve, poor fit] | 10.6
CCC1C(C#N)=C(SC)NC2=C1C(=O)CC(C)(C)C2 (stereo unspecified) |  | 0.13 µM [falling, full curve, poor fit] | 0.822
O=C(Nc1ccc(-c2nc3ccc(NC(=O)c4cccs4)cc3[nH]2)cc1)c1cccs1 | 29.1 µM [falling, single point] | 2.31 µM [rising, partial curve] | -48.4
COc1cccc(NC(=O)COc2ncnc3sc(C)c(C)c23)c1 | 1.3 µM [rising, partial curve] |  | 
CN(C(=O)c1ccc(NC(=O)Cc2cccc(NC(=O)C3CCCN(C(=O)C4CCC4)C3)c2)cc1)C1CCCC1 (stereo unspecified) | 0.0103 µM [falling, full curve, poor fit] | 0.58 µM [falling, single point] | -30.2
CCN(CC)C(=O)COc1cc(C)cc2oc(=O)cc(-c3ccccc3)c12 |  |  | -6.79
Cc1nc2ccccc2c(=O)n1-c1cccc(NS(=O)(=O)c2ccccc2)c1 |  | 14.6 µM [falling, partial curve] | 
CC(CC1C(C#N)=C(N)OC2=C1C(=O)CCC2)c1ccccc1 (stereo unspecified) | 2.59 µM [rising, full curve] |  | 90.2
CC(C)c1nnc(NC(=O)c2sc3ccccc3c2Cl)s1 |  |  | 1.92
O=C(CC1C(=O)NCCN1C(=S)Nc1ccccc1)Nc1ccc(F)cc1 (stereo unspecified) |  | 0.0366 µM [falling, full curve, poor fit] | -13.4
Cn1c(SCc2ccc(F)cc2Cl)nc2ccccc2c1=O | 29.1 µM [falling, single point] | 32.6 µM [falling, partial curve, poor fit] | -33.6
COc1ccc(S(=O)(=O)N2CCN(c3ccccn3)CC2)cc1[N+](=O)[O-] |  | 0.411 µM [rising, full curve, poor fit] | 22.8
Cc1cc([N+](=O)[O-])nn1CC(=O)NNC(=S)Nc1ccc([N+](=O)[O-])cc1 |  |  | -16.3
COc1cccc2[nH]c3c(=O)n(CCCN4CCOCC4)cnc3c12 |  |  | 25.3
COc1ccc(N2CCN(C(=O)CN(Cc3ccccc3)S(C)(=O)=O)CC2)cc1 | 9.2 µM [rising, partial curve] |  | 111

2 compounds picked at random from those above, as already listed:
Compound | AC50 [1] | AC50 [2] | cell number change [%]
CCC1C(C#N)=C(SC)NC2=C1C(=O)CC(C)(C)C2 (stereo unspecified) |  | 0.13 µM [falling, full curve, poor fit] | 0.822
O=C(Nc1ccc(Cl)cc1Cl)c1ccc(-c2ccccc2)cc1 |  | 11.6 µM [rising, partial curve, poor fit] | 14.8
